Like-named read-outs stand apart in the source and are kept apart here. No constants are given. Whether binding was seen depends on the method and setting. Binding seen in cells or lysates may run through a third protein. A result given as binding can be weak or reduced; the word gives no strength.
Assays:
[1] = target: T1, Upf1 (rat (endogenous in sympathetic neurons of Sprague Dawley rats and in PC12 cells)); test: co-IP
T1 sequence: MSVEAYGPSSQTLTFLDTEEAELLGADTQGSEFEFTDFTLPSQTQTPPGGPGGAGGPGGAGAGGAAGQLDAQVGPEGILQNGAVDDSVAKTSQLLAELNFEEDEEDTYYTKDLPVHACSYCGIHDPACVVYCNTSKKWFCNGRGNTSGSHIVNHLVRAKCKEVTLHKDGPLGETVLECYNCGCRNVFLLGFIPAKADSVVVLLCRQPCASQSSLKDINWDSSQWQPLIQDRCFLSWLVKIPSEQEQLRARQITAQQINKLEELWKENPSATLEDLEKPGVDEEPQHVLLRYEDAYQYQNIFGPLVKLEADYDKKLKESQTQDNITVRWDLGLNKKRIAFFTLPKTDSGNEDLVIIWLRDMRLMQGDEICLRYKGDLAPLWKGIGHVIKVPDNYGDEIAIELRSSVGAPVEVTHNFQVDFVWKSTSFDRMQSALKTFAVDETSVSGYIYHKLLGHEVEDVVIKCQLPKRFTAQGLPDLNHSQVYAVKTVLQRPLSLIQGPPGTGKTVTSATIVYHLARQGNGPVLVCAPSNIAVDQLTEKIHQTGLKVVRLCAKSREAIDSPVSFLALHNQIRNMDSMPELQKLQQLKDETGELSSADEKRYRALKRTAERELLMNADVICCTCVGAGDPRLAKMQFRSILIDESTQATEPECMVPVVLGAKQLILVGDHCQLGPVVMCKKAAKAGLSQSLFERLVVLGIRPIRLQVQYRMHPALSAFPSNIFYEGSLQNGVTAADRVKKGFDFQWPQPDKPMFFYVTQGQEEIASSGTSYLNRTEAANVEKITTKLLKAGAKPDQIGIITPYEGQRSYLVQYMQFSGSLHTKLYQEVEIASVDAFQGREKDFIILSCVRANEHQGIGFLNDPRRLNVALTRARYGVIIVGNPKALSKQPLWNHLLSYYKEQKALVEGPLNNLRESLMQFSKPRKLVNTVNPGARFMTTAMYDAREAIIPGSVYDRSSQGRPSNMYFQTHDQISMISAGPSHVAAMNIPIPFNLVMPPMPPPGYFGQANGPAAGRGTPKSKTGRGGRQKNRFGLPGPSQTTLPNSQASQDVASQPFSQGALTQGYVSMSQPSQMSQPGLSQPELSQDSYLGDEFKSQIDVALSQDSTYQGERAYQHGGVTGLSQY

[2] = target: T1, Upf1 (rat (endogenous in sympathetic neurons of Sprague Dawley rats and in PC12 cells)); test: co-IP; remark: listed apart in the source

PolyA-binding protein cytoplasmic 4
binding [1]: binds | binding [2]: binds

From doi:10.1101/170100
